At least one compound was matched to its structure with a doubt left.
How the values were obtained:
Assay type in all cases: cell-based, human
293 cells [1] = experiment: SEAP assay: iMC.FRBL / iMC.FRBL2 plus Caspase-9; conditions: Caspase-9 with iMC.FRBL or iMC.FRBL2 and anti-HER2 CAR
Procedure: HEK-293 cells were transfected with 1 μg of SRα-SEAP constitutive reporter plasmid along with either negative (Neg) control, eGFP (pBP0047), CaspaCIDe (iC9/pBP0044) alone, or CaspaCIDe along with iMC.FRBL (pBP0655)+anti-HER2.CAR.Fpk2 (pBP0488) or iMC.FRBL2 (pBP0498)+anti-HER2.CAR.Fpk2. Cells were then plated with half-log dilutions of rimiducid or rapamycin and assayed for SEAP as previously described. Diminution of SEAP activity correlates with cell elimination. Schematic represents one possible rapamycin-mediated complex of signaling domains, which lead to Caspase-9 clustering and apoptosis.
To determine if multimers of FRB would still act as a recruitment scaffold to enable rapalog-mediated Caspase-9 dimerization when attached to another signaling domain, 1 or 2 FRBL domains were fused to the potent chimeric stimulatory molecule, MyD88/CD40, to derive iMC.FRBL (pBP0655) and iMC.FRBL2 (pBP0498), respectively (FIG. 9B). As an initial test, 293 cells were transiently transfected with reporter plasmid SRα-SEAP, Caspase-9, a 1st generation anti-HER2 CAR (pBP0488) and (pBP0655 or pBP0498) (FIG. 15). Control transfections contained Caspase-9 (pBP0044) alone or eGFP expression vector (pBP0047). […] Thus, heterodimerizer-mediated activation of Caspase-9 is possible in cells containing multimers of FRBL fused to distinct proteins, such as MyD88/CD40.

293T cells = experiment: SeAP reporter assay: FRBL-Caspase9 plus FKBPv12-Caspase9 heterodimerization
Procedure: HEK 293T cells (5×10^5) were seeded on a 100-mm tissue culture dish in 10 mL DMEM4500, supplemented with glutamine, penicillin/streptomycin and 10% fetal calf serum. After 16-30 hours incubation, cells were transfected using Novagen's GeneJuice® protocol. Briefly, for each transfection, 0.5 mL OptiMEM was pipeted into a 1.5-mL microcentrifuge tube and 15 μL GeneJuice reagent added followed by 5 sec. vortexing. Samples were rested 5 minutes to settle the GeneJuice suspension. DNA (5 μg total) was added to each tube and mixed by pipetting up and down four times. Samples were allowed to rest for 5 minutes for GeneJuice-DNA complex formation and the suspension added dropwise to one dish of 293T cells. […]
24 hours after drug stimulation, 96-well plates were wrapped to prevent evaporation and incubated at 65®C for 2 hours to inactivate endogenous and serum phosphatases while the heat-stable SeAP reporter remains (1, 4, 12). […] Phosphatase activity was measured by fluorescence with excitation at 355 nm and emission at 460 nm. […]
FIG. 37—Drug induced programmed cell death by homodimerization or heterodimerization of tagged caspase 9. […] Reporter activity is expressed as a percentage of the average of 8 control wells containing no drug. […]
FIG. 38—Rapalog-induced cell death switch. […] Reporter activity is expressed as a percentage of the average of 8 wells containing no drug. […]

293 cells [2] = experiment: SEAP assay: iMC (tandem FKBP) plus FRBL2-Caspase-9; conditions: tandem FKBPs (iMC) present
Procedure: FIGS. 16A and 16B are line graphs showing that tandem FKBP scaffold mediates FRBL2. Caspase activation in the presence of rapalogs. FIG. 16A. HEK-293 cells were transfected with 1 μg each of SRα-SEAP reporter plasmid, Δmyr.iMC.2A-anti-CD19.CAR.CD3 (pBP0608), and FRBL2. Caspase-9 (pBP0467). […] After ON incubation, cell supernatants were assayed for SEAP activity, as previously described. FIG. 16B. Similar to the experiment described in (FIG. 16A), except that cells were transfected with a membrane-localized (myristoylated) iMC.2A-CD19.CAR.CD3ζ (pBP0609), instead of non-myristoylated Amyr.iMC.2A-CD19.CAR.CD3ζ (pBP0608).
In a second test for rapalog-mediated scaffold-based activation of Caspase-9, 293 cells were transiently transfected with SRα-SEAP reporter plasmid, plus myristoylated or non-myristoylated inducible iMC co-expressed with 1st generation anti-CD19 CAR, plus FRBL2-fused Caspase-9 (plasmid pBP0467) (FIG. 16). […] Thus, rapamcyin and analogs can activate Caspase-9 via a molecular scaffold comprised of FRB or FKBP12 domains.

CO[C@H]1C[C@@H]2CC[C@@H](C)[C@@](O)(O2)C(=O)C(=O)N2CCCC[C@H]2C(=O)O[C@H]([C@H](C)C[C@@H]2CC[C@@H](O)[C@H](OC)C2)CC(=O)[C@H](C)/C=C(\C)[C@@H](O)[C@@H](OC)C(=O)[C@H](C)C[C@H](C)/C=C/C=C/C=C/1C [rapamycin]
SEAP reduction / cell killing (293 cells [1]): only triggered SEAP reduction in cells expressing iMC.FRBL2 and Caspase-9
cell death (loss of SeAP reporter) (293T cells; FKBPv12-Caspase-9 with control vector or FRB without caspase fusion): did not promote cell death
cell death (loss of SeAP reporter) (293T cells; FRBL-Caspase9 plus FKBPv12-Caspase9): dose-dependent high efficacy cell death switch
activation of FRBL2-Caspase-9 (293 cells [2]): activated

— patent US20220152100A1, “METHODS FOR CONTROLLED ACTIVATION OR ELIMINATION OF THERAPEUTIC CELLS” (Bellicum Pharmaceuticals, Inc., priority 2014, published 2022)
